These are yes or no findings as the source states them, for the method shown. Binding seen in cells or lysates may run through a third protein. A yes stands for co-enrichment or nearness to the bait. Other partners may have been found.
Target: T1, C9ORF135 protein (chromosome 9 open reading frame 135), isoform 1 (human (endogenous in hESCs)) (UniProt Q5VTT2)
T1 sequence: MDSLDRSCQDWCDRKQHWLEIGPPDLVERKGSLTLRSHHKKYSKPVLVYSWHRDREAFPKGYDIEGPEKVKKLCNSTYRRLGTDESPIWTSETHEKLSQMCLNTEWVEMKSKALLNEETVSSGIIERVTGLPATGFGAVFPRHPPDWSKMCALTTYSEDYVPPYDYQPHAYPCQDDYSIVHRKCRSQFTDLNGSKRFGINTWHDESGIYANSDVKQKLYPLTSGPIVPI
Assay: affinity purification with mass spectrometry; hESC lysate precipitated with anti-C9ORF135 antibody (control: normal IgG); SDS-PAGE, silver staining; three bands present only in the antibody pulldown excised and analysed by MS (LTQ Orbitrap XL)

Sequences of proteins named here, by UniProt entry; tags and fusion partners are left off.
UniProt P35579: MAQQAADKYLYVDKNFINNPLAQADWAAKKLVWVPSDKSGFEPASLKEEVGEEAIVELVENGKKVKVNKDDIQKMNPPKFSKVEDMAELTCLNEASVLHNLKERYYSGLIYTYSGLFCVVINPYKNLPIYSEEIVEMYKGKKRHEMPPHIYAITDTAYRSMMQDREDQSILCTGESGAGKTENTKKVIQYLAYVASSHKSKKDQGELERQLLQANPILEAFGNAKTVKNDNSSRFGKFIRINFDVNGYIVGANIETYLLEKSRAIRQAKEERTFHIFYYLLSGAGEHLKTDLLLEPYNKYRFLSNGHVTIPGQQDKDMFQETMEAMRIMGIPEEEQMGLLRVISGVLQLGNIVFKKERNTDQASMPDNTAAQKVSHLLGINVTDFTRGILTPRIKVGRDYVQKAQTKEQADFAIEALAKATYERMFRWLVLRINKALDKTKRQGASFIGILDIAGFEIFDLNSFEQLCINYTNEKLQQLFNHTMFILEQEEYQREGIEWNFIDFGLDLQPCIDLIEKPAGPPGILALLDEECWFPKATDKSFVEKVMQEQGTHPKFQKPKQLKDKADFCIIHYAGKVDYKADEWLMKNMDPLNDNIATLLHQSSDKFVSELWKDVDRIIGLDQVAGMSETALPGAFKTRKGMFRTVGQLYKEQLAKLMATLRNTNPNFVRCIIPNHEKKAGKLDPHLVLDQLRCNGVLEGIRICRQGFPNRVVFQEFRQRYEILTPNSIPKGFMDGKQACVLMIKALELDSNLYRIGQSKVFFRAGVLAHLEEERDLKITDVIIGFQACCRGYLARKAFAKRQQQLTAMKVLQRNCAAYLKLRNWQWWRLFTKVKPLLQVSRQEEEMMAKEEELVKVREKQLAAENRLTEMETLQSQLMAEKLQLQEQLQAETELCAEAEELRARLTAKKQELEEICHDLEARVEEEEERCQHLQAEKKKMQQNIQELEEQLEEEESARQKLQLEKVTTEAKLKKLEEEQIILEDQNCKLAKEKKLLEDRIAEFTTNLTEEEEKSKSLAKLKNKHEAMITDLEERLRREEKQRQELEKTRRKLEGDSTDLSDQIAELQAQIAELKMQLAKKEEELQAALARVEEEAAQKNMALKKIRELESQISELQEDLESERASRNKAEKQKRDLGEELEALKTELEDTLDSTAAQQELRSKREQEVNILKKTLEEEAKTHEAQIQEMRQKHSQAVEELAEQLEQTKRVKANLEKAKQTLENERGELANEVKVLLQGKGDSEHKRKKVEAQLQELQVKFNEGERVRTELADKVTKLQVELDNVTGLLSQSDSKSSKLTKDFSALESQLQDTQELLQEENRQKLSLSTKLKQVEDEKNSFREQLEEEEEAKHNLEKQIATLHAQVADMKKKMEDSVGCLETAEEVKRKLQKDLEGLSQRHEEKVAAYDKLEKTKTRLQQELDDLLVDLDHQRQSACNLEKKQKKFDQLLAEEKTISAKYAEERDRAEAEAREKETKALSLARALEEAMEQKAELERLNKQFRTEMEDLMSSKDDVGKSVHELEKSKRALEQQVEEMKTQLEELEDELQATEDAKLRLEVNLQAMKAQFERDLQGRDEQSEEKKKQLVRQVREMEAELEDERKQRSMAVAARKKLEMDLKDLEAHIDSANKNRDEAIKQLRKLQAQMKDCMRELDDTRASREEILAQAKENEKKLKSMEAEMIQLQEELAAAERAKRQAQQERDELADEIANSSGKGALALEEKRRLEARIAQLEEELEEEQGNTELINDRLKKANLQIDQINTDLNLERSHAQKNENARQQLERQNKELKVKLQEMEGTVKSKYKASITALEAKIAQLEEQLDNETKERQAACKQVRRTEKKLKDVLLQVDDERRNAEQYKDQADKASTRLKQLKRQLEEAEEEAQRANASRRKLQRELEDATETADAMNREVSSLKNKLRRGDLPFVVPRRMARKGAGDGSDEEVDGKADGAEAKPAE

binding: binds
Substance: myosin-9 (MYH9, myosin-IIA) (from UniProt P35579 1-1960)
